From patent publication US20220380482A1
Results are given in words; binding and its absence hold for the method and conditions named. Some entries that bind do so weakly or less than the wild type. Tags and fused reporters may be left off the sequences shown.

Amino acid sequences for entries named in this document (tags omitted). Residues count along the entry.
UniProt Q6UVK1, residues 30-2322: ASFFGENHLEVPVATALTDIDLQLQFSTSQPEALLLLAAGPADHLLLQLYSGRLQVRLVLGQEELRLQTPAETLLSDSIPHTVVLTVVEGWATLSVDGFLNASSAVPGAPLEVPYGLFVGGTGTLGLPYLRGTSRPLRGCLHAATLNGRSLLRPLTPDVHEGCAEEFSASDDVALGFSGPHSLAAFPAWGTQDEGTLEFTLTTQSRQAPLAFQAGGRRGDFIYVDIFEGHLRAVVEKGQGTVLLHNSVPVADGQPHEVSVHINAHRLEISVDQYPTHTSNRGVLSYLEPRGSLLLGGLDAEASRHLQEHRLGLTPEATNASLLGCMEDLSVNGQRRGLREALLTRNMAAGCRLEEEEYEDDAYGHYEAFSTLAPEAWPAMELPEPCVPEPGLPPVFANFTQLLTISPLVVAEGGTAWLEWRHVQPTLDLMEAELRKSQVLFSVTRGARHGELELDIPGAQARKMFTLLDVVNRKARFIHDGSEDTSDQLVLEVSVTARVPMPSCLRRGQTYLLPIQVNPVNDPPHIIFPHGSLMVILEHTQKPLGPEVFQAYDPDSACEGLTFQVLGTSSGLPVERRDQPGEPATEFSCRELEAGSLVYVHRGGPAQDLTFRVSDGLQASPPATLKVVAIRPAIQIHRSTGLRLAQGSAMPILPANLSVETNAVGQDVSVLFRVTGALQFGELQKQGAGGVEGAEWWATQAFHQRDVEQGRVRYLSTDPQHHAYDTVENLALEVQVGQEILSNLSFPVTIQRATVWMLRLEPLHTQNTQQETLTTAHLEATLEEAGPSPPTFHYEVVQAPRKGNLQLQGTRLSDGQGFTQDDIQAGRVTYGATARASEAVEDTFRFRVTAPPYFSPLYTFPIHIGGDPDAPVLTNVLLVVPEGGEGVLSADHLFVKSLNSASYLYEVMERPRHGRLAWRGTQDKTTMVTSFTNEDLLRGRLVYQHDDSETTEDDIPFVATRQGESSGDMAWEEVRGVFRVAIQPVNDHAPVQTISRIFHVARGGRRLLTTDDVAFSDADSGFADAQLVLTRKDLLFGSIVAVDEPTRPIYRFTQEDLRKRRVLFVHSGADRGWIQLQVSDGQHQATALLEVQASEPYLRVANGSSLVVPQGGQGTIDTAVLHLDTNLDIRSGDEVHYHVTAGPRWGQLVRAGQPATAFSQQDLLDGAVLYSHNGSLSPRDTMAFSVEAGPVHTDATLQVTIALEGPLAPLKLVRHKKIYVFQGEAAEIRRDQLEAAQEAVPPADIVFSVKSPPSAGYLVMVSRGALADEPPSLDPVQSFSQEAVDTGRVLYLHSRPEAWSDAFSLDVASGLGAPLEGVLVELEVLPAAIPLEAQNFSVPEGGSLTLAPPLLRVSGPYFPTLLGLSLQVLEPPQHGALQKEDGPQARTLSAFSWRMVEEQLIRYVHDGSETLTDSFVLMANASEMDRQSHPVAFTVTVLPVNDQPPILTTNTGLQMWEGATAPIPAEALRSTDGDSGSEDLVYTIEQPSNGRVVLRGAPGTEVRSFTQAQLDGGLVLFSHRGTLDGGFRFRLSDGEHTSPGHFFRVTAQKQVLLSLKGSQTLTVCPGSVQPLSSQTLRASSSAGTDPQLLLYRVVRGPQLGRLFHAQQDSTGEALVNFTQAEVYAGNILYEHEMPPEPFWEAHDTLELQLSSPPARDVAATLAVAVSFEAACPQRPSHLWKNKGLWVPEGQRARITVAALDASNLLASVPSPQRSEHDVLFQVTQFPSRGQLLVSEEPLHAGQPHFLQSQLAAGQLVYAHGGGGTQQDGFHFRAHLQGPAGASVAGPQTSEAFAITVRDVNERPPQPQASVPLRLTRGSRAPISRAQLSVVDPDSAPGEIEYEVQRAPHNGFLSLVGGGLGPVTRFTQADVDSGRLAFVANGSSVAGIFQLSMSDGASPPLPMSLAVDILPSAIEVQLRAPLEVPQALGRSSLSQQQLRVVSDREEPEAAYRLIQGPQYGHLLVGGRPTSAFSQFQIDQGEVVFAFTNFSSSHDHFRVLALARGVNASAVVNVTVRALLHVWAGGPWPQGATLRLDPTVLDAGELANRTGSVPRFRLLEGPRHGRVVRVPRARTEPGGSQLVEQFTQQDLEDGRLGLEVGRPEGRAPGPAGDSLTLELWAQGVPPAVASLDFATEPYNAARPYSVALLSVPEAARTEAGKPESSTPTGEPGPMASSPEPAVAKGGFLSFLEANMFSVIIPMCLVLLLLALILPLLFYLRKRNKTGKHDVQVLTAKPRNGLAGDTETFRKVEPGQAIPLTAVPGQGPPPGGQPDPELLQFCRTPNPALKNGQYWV

Key:
[1] = biological target: HMW-MAA (high molecular weight-melanoma associated antigen) on A375 cells (UniProt Q6UVK1); experiment: flow cytometry on A375 cells, FITC anti-human IgG or IgE secondary antibody
[2] = biological target: HMW-MAA (high molecular weight-melanoma associated antigen) on A375 cells (UniProt Q6UVK1); experiment: flow cytometry on A375 cells (express HMW-MAA/CSPG4), FITC goat anti-human IgE secondary antibody, median fluorescence

binding [1]: binds
binding [2]: binds
B1: huCH IgE 3-His (anti-HMW-MAA IgE 3His) (antibody)
heavy: EVQLVQSGGGLVQPGGSLKLSCAVSGFTFSNYWMNWVRQAPGKGLEWVGEIRLKSNNFGRYYAESVKGRFTISRDDSKNTAYLQMNSLKTEDTAVYYCTSYGNYVGHYFDHWGQGTLVTVSSASTQSPSVFPLTRCCKNIPSNATSVTLGCLATGYFPEPVMVTWDTGSLNGTTMTLPATTLTLSGHYATISLLTVSGAWAKQMFTCRVAHTPSSTDWVDNKTFSVCSRDFTPPTVKILQSSCDGGGHFPPTIQLLCLVSGYTPGTINITWLEDGQVMDVDLSTASTTQEGELASTQSELTLSQKHWLSDRTYTCQVTYQGHTFEDSTKKCADSNPRGVSAYLSRPSPFDLFIRKSPTITCLVVDLAPSKGTVNLTWSRASGKPVNHSTRKEEKQRNGTLTVTSTLPVGHRDWIEGETYQCRVTHPHLPRALMRSTTKTSGPRAAPEVYAFATPEWPGSRDKRTLACLIQNFMPEDISVQWLHNEVQLPDARHSTTQPRKTKGSGFFVFSRLEVTRAEWEQKDEFICRAVHEAAHPSHTVQRAVSVNPGK
light: DIQLTQSPSFLSASVGDRVTITCKASQNVDTNVAWYQQKPGKAPKPLLFSASYRYTGVPSRFSGSGSGTDFTLTISSLQPEDFATYFCQQYNSYPLTFGGGTKVEIKGTVAAPSVFIFPPSDEQLKSGTASVVCLLNNFYPREAKVQWKVDNALQSGNSQESVTEQDSKDSTYSLSSTLTLSKADYEKHKVYACEVTHQGLSSPVTKSFNRGEC
